No constants are given. Whether binding was seen depends on the method and setting. Some binding calls cover weakened binding; strength is not graded here.

Protein sequences, listed by entry. Tags and fused reporters are not part of them. Residues count along the entry.
UniProt Q05320, residues 33-637: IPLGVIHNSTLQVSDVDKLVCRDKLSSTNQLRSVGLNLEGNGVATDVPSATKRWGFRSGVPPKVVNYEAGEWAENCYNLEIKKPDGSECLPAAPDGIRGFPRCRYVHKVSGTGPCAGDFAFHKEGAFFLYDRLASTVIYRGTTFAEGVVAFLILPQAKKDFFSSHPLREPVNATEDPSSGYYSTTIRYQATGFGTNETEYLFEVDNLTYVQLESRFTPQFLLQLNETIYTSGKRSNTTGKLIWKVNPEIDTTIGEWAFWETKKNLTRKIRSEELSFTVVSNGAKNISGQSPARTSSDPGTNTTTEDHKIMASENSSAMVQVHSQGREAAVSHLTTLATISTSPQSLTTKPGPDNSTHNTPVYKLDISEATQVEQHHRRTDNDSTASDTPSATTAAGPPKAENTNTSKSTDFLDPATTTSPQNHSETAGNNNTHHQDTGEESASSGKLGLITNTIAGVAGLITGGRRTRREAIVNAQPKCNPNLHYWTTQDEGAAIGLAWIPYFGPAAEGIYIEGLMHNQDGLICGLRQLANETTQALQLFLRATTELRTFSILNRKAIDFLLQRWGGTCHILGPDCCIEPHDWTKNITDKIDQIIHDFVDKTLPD
UniProt Q66799, residues 34-638: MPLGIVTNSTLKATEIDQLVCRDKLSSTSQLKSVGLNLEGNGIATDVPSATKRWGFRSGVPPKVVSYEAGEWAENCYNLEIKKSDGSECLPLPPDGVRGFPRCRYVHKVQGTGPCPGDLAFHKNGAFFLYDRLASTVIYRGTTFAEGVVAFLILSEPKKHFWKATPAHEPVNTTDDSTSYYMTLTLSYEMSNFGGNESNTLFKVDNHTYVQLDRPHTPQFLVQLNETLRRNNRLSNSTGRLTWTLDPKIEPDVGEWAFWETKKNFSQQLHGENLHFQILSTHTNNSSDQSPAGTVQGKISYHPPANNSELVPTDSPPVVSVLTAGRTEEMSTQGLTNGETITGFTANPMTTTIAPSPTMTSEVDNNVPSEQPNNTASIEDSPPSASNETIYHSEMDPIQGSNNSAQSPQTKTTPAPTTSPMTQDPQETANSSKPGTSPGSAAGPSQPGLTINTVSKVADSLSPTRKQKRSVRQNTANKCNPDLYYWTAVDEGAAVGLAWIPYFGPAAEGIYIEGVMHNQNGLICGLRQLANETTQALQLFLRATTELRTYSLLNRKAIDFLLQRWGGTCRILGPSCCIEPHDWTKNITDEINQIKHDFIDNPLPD

For assay [1], the target named is EBOV GP (Ebola virus (EBOV)) (UniProt Q05320). Put plainly: ELISA, GP antigen coated, mAb at 0.2 µg/ml. For orientation: In an ELISA, binding on a coated surface is turned into a signal by an enzyme label.
Assay [2] concerns the target RESTV GP (Reston virus (RESTV)) (UniProt Q66799). Put plainly: ELISA, GP antigen coated, mAb at 0.2 µg/ml.

B1: mAb PE-16 (antibody, V domains shown)
VH: QVQLVQSGAEVTKPGASVKVSCKASGYTFTTYYMHWVRQAPGQGLEWVGIINPSGGITRYAQKFQGRVTLTRDTSTTTVYMELSSLRSEDTAVYYCARDRYPVLFATDYGMDVWGQGTTVTVSS
VL: DIVMTQSPATLSLSPGERATLSCRASQSVSGYLAWYQQKPGQAPRLLIYDASNRATGIPARFSGSGSGTDFTLTISSLEPEDFAVYYCQQRSIWPPGVTFGGGTKVEIK
Take B1: the binding entry in assay [1] is given as “binds”.

B2: mAb PE-47 (antibody, V domains shown)
VH: EVQLVESGGGLVKPGGSLRLSCAASGFTFSNAWMSWVRQAPGEGLEWVGRIKSKTDGGTIDYAAPVKGRFTISRDDSKNTVYLQMTSLKTEDTAVYYCTTYTEDMQYFDWLLRGGETFDYWGQGTLVTVSS
VL: DIQMTQSPSSLSASVGDRVTITCRASQYISTYLNWYQQKPGKAPKLLIYAAYNLQSGVPSRFSGSGSGTDFTLTISSLQPEDFATYYCQQSYSTPGRYTFGQGTKVEIK
For B2, the binding entry in assay [1] is “binds”.

B3: mAb PE-24 (antibody, V domains shown)
VH: EVQLVESGGGLVQPGGSLRLSCAASGFTFSSYAMSWVRQAPGKGLEWVSEISGLGGSTYYADSAKGRFTISRDNSKSTLYLQMNSLRAEDTAVYYCAKDHRVWAPGYYFDHWGQGTLVTVSS
VL: DIVLTQSPSTLSASVGDRVTITCRASQSISSWLAWYQQKPGKAPKLLIYDASSLESGVPSRFSGSGSGTEFTLTISSLQPDDFATYFCQQYNRSPTFGGGTKVEIK
Take B3: the binding result in assay [1] and in assay [2] was “binds” each time.

B4: mAb PE-87 (antibody, V domains shown)
VH: QVQLVQSGVTLVQPGGSLRVSCAASGFTFSSYAMSWVRQAPGKGLEWVSAISGLGGSTYYADSVKGRFTISRDNSKNTLYLQMNSLRAEDTAVYYCAKDHRVWAAGYHFDYWGQGALVTVSS
VL: DIVLTQSPSTLSASVGDRVTITCRASQSISSWLAWYQQKPGEAPKLLISDASSLESGVPSRFSGSGSGTEFTLTISSLQPDDFATYYCQQYYSSPTFGGGTKVEIK
For B4, the binding entry in assay [1] and in assay [2] was “binds” each time.
